From PubChem BioAssay (NCATS)
This list was built around the results that the source calls inconclusive (neither active nor inactive); the mix of calls is not that of the screen. Potencies beside an inconclusive call are fits to weak or partial responses and may not hold up. The source made the active and inactive calls. Calls come from the whole dose curve; as a rule, active = well fitted curve in the direction sought with a large enough effect; inconclusive = small, poorly fitted or top-dose-only effect, or another doubt; inactive = no such curve, though single readings can be large; an effect the other way counts as inactive or inconclusive.

Experiments:
[1] = Quantitative High-Throughput drug screen in 47 multiple myeloma cell lines against the NCATS MIPE library collection: EJM_DSMZ cell viability assay (AID 1918926; note: nearly all actives have a fitted effect of over 30% in size)
Summary of the method: (§1)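 Steps: seed 500 cells per well; pin-transfer MIPE 4.0 library; incubate 48 h at 37C, 5% CO2, humidified; add CellTiter-Glo, 5 min room temperature; read luminescence.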

[2] = Quantitative High-Throughput drug screen in 47 multiple myeloma cell lines against the NCATS MIPE library collection: ARP1_JJKsccF8 cell viability assay (AID 1918928; note: nearly all actives have a fitted effect of over 40% in size)
Summary of the method: (§2)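 Here, 48 h treatment with MIPE 4.0 agents at 37 °C preceded an ATP luminescence read. Plating density was 500 cells per well.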

[3] = Quantitative High-Throughput drug screen in 47 multiple myeloma cell lines against the NCATS MIPE library collection: ARD_JJKsccE7 cell viability assay (AID 1918929); settings: ARD myeloma cell line viability, CellTiter-Glo, 48 h; viability: at 45.8 µM (top of the series)
Summary of the method: as §1

[4] = Quantitative High-Throughput drug screen in 47 multiple myeloma cell lines against the NCATS MIPE library collection: KMM1_JCRB cell viability assay (AID 1918960); settings: KMM1 myeloma viability, CellTiter-Glo ATP luminescence, 48 h; viability (% of DMSO): at 45.8 µM (top of the series); note: nearly all actives have a fitted effect of over 30% in size;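 for viability (% of DMSO): 100% = DMSO-treated cells and 0% = medium-only wells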
Summary of the method: as §2

[5] = Quantitative High-Throughput drug screen in 47 multiple myeloma cell lines against the NCATS MIPE library collection: Karpas417_ECACC cell viability assay (AID 1918961); settings: Karpas417 myeloma viability, CellTiter-Glo ATP luminescence, 48 h; viability (% of DMSO): at 45.8 µM (top of the series)
Summary of the method: (§3)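 We plated 500 myeloma cells per well, pinned in MIPE 4.0 compounds, and incubated for 48 hours at 37C. ATP was then quantified with CellTiter-Glo, with DMSO and media-only wells defining 100% and 0%.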

[6] = Quantitative High-Throughput drug screen in 47 multiple myeloma cell lines against the NCATS MIPE library collection: KHM11_PLB cell viability assay (AID 1918962); settings: KHM11 myeloma cell viability, CellTiter-Glo ATP luminescence, 48 h; viability, % of DMSO control: at 45.8 µM (top of the series); note: nearly all actives have a fitted effect of over 35% in size
Summary of the method: (§4)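 Primary qHTS used for cherry-picking: cells at 500/well, library compounds for 48 h (37C, 5% CO2), luminescent ATP assay.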

[7] = Quantitative High-Throughput drug screen in 47 multiple myeloma cell lines against the NCATS MIPE library collection: JIM3_ECACC cell viability assay (AID 1918963; note: nearly all actives have a fitted effect of over 35% in size)
Summary of the method: as §4

[8] = Quantitative High-Throughput drug screen in 47 multiple myeloma cell lines against the NCATS MIPE library collection: JIM1_ECACC cell viability assay (AID 1918964); settings: JIM1 myeloma viability, CellTiter-Glo ATP luminescence, 48 h; viability (% of DMSO): at 45.8 µM (top of the series)
Summary of the method: as §1

[9] = Quantitative High-Throughput drug screen in 47 multiple myeloma cell lines against the NCATS MIPE library collection: INA6_PLB cell viability assay (AID 1918965; note: nearly all actives have a fitted effect of over 55% in size); settings: INA6 myeloma viability, CellTiter-Glo ATP luminescence, 48 h; viability (% of control): at 45.8 µM (top of the series)
Summary of the method: as §3

[10] = Quantitative High-Throughput drug screen in 47 multiple myeloma cell lines against the NCATS MIPE library collection: JJN3_DSMZ cell viability assay (AID 1918966; note: nearly all actives have a fitted effect of over 50% in size); settings: JJN3 myeloma cells viability, CellTiter-Glo ATP, 48 h; viability, % of DMSO: at 45.8 µM (top of the series)
Summary of the method: as §1

[11] = Quantitative High-Throughput drug screen in 47 multiple myeloma cell lines against the NCATS MIPE library collection: H1112_PLB cell viability assay (AID 1918967; note: nearly all actives have a fitted effect of over 30% in size)
Summary of the method: as §1

[12] = Quantitative High-Throughput drug screen in 47 multiple myeloma cell lines against the NCATS MIPE library collection: AMO1_DSMZ cell viability assay (AID 1918927; note: nearly all actives have a fitted effect of over 30% in size)
Summary of the method: as §1

[13] = Quantitative High-Throughput drug screen in 47 multiple myeloma cell lines against the NCATS MIPE library collection: Karpas25_ECACC cell viability assay (AID 1918968; note: nearly all actives have a fitted effect of over 35% in size); settings: Karpas25 myeloma viability, CellTiter-Glo ATP, 48 h; viability (% of control): at 45.8 µM (top of the series)
Summary of the method: as §1

[14] = Quantitative High-Throughput drug screen in 47 multiple myeloma cell lines against the NCATS MIPE library collection: KMS27_JCRB cell viability assay (AID 1918970); settings: KMS27 myeloma cells, CellTiter-Glo ATP viability, 48 h; viability (% of DMSO): at 45.8 µM (top of the series); note: nearly all actives have a fitted effect of over 30% in size
Summary of the method: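 Myeloma cells (500 per well) were exposed to MIPE 4.0 compounds for 48 h at 37 °C, 5% CO2; viability was read as ATP luminescence with CellTiter-Glo, normalized to DMSO-only (100%) and media-only (0%) wells.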

[15] = Quantitative High-Throughput drug screen in 47 multiple myeloma cell lines against the NCATS MIPE library collection: Delta47_JCRB cell viability assay (AID 1918925; note: nearly all actives have a fitted effect of over 45% in size); settings: Delta47 myeloma viability, CellTiter-Glo ATP, 48 h; viability (% of DMSO): at 45.8 µM (top of the series)
Summary of the method: as §1

[16] = Quantitative High-Throughput drug screen in 47 multiple myeloma cell lines against the NCATS MIPE library collection: Karpas620_DSMZ cell viability assay (AID 1918959); settings: Karpas620 myeloma viability, CellTiter-Glo ATP luminescence, 48 h; viability (% of DMSO): at 45.8 µM (top of the series); note: nearly all actives have a fitted effect of over 30% in size
Summary of the method: as §4
Potency is the fitted concentration of half-maximal effect.

Row | SMILES | Potency [1] | Potency [2] | Potency [3] | Potency [4] | Potency [5] | Potency [6] | Potency [7] | Potency [8] | Potency [9] | Potency [10] | Potency [11] | Potency [12] | Potency [13] | Potency [14] | Potency [15] | Potency [16] | viability (% of control) [9]
1 | CC(=O)O[C@]1(C(C)=O)CC[C@H]2[C@@H]3C=C(C)C4=CC(=O)CC[C@]4(C)[C@@H]3CC[C@@]21C | inactive | inconclusive: 23.5 µM [cytotoxic, single point] | inconclusive: 20.9 µM [cytotoxic, partial curve, poor fit] | inconclusive: 14.8 µM [cytotoxic, partial curve] | inconclusive: 20.9 µM [cytotoxic, partial curve, poor fit] | inactive | inconclusive: 10.5 µM [cytotoxic, single point] | active: 10.5 µM | inconclusive: 11.8 µM [cytotoxic, single point] | inconclusive: 16.6 µM [cytotoxic, partial curve, poor fit] | inconclusive: 8.33 µM [cytotoxic, single point] | – | – | – | – | – | –
2 | O=S(=O)(O)CCSSCCS(=O)(=O)O | inactive | inactive | – | – | – | inactive | – | inconclusive: 9.35 µM [rising, full curve, poor fit] | inactive | inconclusive: 0.0105 µM [rising, full curve, poor fit] | inactive | inconclusive: 0.0021 µM [rising, full curve, poor fit] | inactive | inactive | – | – | –
3 | O=c1oc2cc(O)ccc2s1 | – | inconclusive: 7.43 µM [cytotoxic, partial curve, poor fit] | inconclusive: 33.2 µM [cytotoxic, single point] | inconclusive: 0.264 µM [cytotoxic, full curve, poor fit] | – | inconclusive: 2.09 µM [cytotoxic, full curve, poor fit] | – | inconclusive: 37.2 µM [cytotoxic, single point] | – | inconclusive: 18.7 µM [cytotoxic, partial curve, poor fit] | inactive | – | – | inconclusive: 23.5 µM [cytotoxic, single point] | inconclusive: 8.33 µM [cytotoxic, partial curve, poor fit] | inconclusive: 23.5 µM [cytotoxic, partial curve] | inconclusive: 114% [cytotoxic]
4 | O=C1c2c(O)cc(O)cc2O[C@H](c2cc(O)c(O)c(O)c2)[C@H]1O | active: 1.66 µM | – | – | inactive | inconclusive: 14.8 µM [rising, partial curve, poor fit] | inactive | – | active: 5.9 µM | inconclusive: 0.0372 µM [rising, full curve, poor fit] | – | – | inconclusive: 10.5 µM [cytotoxic, single point] | inconclusive: 18.7 µM [cytotoxic, partial curve, poor fit] | – | – | inconclusive: 9.35 µM [cytotoxic, single point] | –
5 | O=C(CCc1ccc(O)cc1)c1c(O)cc(O)cc1O[C@@H]1O[C@H](CO)[C@H](O)[C@H](O)[C@H]1O | inactive | – | – | – | inconclusive: 0.0042 µM [rising, full curve, poor fit] | inconclusive: 0.662 µM [cytotoxic, full curve, poor fit] | – | inconclusive: 0.0469 µM [cytotoxic, full curve, poor fit] | inconclusive: 0.0372 µM [rising, full curve, poor fit] | inconclusive: 6.62 µM [cytotoxic, full curve, poor fit] | inactive | inconclusive: 0.0074 µM [cytotoxic, full curve, poor fit] | inconclusive: 0.001 µM [cytotoxic] | inactive | – | – | –
6 | O=C1NC(=O)C(=Cc2ccc(-c3ccc(F)cc3O)o2)S1 | inconclusive: 13.2 µM [cytotoxic, partial curve, poor fit] | inconclusive: 0.0017 µM [cytotoxic, full curve, poor fit] | inconclusive: 6.62 µM [cytotoxic, partial curve, poor fit] | inconclusive: 3.32 µM [cytotoxic, partial curve, poor fit] | inconclusive: 3.72 µM [cytotoxic, full curve, poor fit] | inconclusive: 16.6 µM [cytotoxic, partial curve, poor fit] | inactive | inconclusive: 8.33 µM [cytotoxic, full curve, poor fit] | active: 7.43 µM | inconclusive: 13.2 µM [cytotoxic, partial curve, poor fit] | – | – | inconclusive: 16.6 µM [cytotoxic, partial curve] | active: 2.09 µM | – | inactive | –
7 | C[C@@H]1CCN(C(=O)CC#N)C[C@H]1N(C)c1ncnc2[nH]ccc12 | inactive | inactive | inconclusive: 0.526 µM [rising, full curve, poor fit] | – | inactive | inconclusive: 29.6 µM [cytotoxic, partial curve, poor fit] | – | inconclusive: 0.0012 µM [cytotoxic, full curve, poor fit] | inconclusive: 0.935 µM [cytotoxic, full curve, poor fit] | inconclusive: 4.69 µM [cytotoxic, partial curve, poor fit] | inactive | inconclusive: 0.0332 µM [cytotoxic, full curve, poor fit] | – | inconclusive: 0.0935 µM [cytotoxic, full curve, poor fit] | – | – | –

Another view of part of the listing above.
Row,SMILES,Potency [1],Potency [2],Potency [3],Potency [4],Potency [5],Potency [6],Potency [7],Potency [8],Potency [9],Potency [10],Potency [11],Potency [12],Potency [13],Potency [14],Potency [15],Potency [16],viability (% of control) [9]
1,CC(=O)O[C@]1(C(C)=O)CC[C@H]2[C@@H]3C=C(C)C4=CC(=O)CC[C@]4(C)[C@@H]3CC[C@@]21C,inactive,"inconclusive: 23.5 µM [cytotoxic, single point]","inconclusive: 20.9 µM [cytotoxic, partial curve, poor fit]","inconclusive: 14.8 µM [cytotoxic, partial curve]","inconclusive: 20.9 µM [cytotoxic, partial curve, poor fit]",inactive,"inconclusive: 10.5 µM [cytotoxic, single point]",active: 10.5 µM,"inconclusive: 11.8 µM [cytotoxic, single point]","inconclusive: 16.6 µM [cytotoxic, partial curve, poor fit]","inconclusive: 8.33 µM [cytotoxic, single point]",–,–,–,–,–,–
6,O=C1NC(=O)C(=Cc2ccc(-c3ccc(F)cc3O)o2)S1,"inconclusive: 13.2 µM [cytotoxic, partial curve, poor fit]","inconclusive: 0.0017 µM [cytotoxic, full curve, poor fit]","inconclusive: 6.62 µM [cytotoxic, partial curve, poor fit]","inconclusive: 3.32 µM [cytotoxic, partial curve, poor fit]","inconclusive: 3.72 µM [cytotoxic, full curve, poor fit]","inconclusive: 16.6 µM [cytotoxic, partial curve, poor fit]",inactive,"inconclusive: 8.33 µM [cytotoxic, full curve, poor fit]",active: 7.43 µM,"inconclusive: 13.2 µM [cytotoxic, partial curve, poor fit]",–,–,"inconclusive: 16.6 µM [cytotoxic, partial curve]",active: 2.09 µM,–,inactive,–
